{
  "sequences": {"note": "Sequences of proteins named here, by UniProt entry; tags and fusion partners are left off.", "UniProt Q03389": "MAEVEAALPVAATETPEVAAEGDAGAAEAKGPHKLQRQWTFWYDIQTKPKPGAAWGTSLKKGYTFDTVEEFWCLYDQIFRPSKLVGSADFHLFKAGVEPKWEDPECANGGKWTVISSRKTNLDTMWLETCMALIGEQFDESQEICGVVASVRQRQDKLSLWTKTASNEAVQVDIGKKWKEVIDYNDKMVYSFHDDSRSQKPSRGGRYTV"},
  "source": "paper doi:10.1101/298455",
  "about": "(bioRxiv, 2018)",
  "biological_target": "wheat eIF(iso)4E (wheat) (UniProt Q03389)",
  "assay": "ELISA",
  "note": "No constants are given. Whether binding was seen depends on the method and setting. Some entries that bind do so weakly or less than the wild type. Where a sequence is shown, tags or fusion partners need not be part of it.",
  "data": [
    {"binder": "RKKGKGKGTTVGMGKSSRRFINMYGF", "note": "[GST-VPg5 fusion protein]", "values": [
      {"measurement": "binding", "result": "binds"}
    ]}
  ]
}
